Tested on: multifunctional germacrene D synthase (EST75565)
Test: Sesquiterpene products of purified recombinant protein + FDP, headspace trapping GC-MS
Type: biochemical, Actinidia deliciosa
Conditions: for Ratios of products, % at pH 6.5 / Ratios of products, % at pH 7.5 / Ratios of products, % at pH 8.5: 21 hours; for share of sesquiterpene products: purified protein + FDP
[1] = Carbowax/DVB SPME fibres, optimum activity conditions
[2] = dynamic headspace, Chromosorb 105, 18 hours
[3] = 30 minutes trapping at 0 hours after addition of FDP
[4] = 30 minutes trapping at 1 hour after addition of FDP
[5] = 30 minutes trapping at 2 hours after addition of FDP

SMILES | Ratios of products, % at pH 6.5 (Carbowax/DVB SPME fibres) | Ratios of products, % at pH 7.5 (Carbowax/DVB SPME fibres) | Ratios of products, % at pH 8.5 (Carbowax/DVB SPME fibres) | share of sesquiterpene products [1] | share of sesquiterpene products [2] | Relative quantities (%) of sesquiterpenes trapped onto PDMS/PDV fibres [3] | Relative quantities (%) of sesquiterpenes trapped onto PDMS/PDV fibres [4] | Relative quantities (%) of sesquiterpenes trapped onto PDMS/PDV fibres [5] | share of sesquiterpene products (PDMS/DVB SPME fibres, 24 hours)
C=C[C@]1(C)CC[C@@H](C(C)(C)O)C[C@H]1C(=C)C [Elemol] | 5.9% | 5.2% | 4.9% | 4.2% | 16.6% |  |  |  | 
CC(C)=C1C/C=C(\C)CC/C=C(\C)CC1 [Germacrene B] | 2.7% | 2.3% | 4.8% | 4.3% | 1.4% | 14.6% | 4.5% | 3.8% | 
C=C1C=CC(C(C)C)CCC(C)=CCC1 (centres unmarked) [Germacrene D, 7-iso-propyl-10-methyl-4-methylene-cyclodeca-5,10-diene] | 64.6% | 64.8% | 64.9% | 83% | 54% | 9.4% | 5.0% | 4.4% | 4.6%
CC1=C[C@@H]2[C@@H](CC1)C(C)=CC[C@H]2C(C)C [alpha-cadinene] |  |  |  |  |  | 0% | 3.4% | 3.9% | 
CC1=C[C@@H]2[C@H](CC1)C(C)=CC[C@H]2C(C)C [alpha-muurolene] |  |  |  |  |  | 0% | 6.9% | 8.3% | 5.9%
C=C(C)[C@@H]1CC[C@@]2(C)CCC=C(C)[C@@H]2C1 [alpha-selinene] |  |  |  |  |  | 0% | 6.0% | 4.5% | 
C=C[C@]1(C)CC[C@@H](C(=C)C)C[C@H]1C(=C)C [beta-elemene] | 10.6% | 6.3% | 1.7% |  |  |  |  |  | 
CC1=C[C@@H]2C(=C(C)CC[C@H]2C(C)C)CC1 [delta-cadinene] |  | 1.2% |  | 0.5% | 3.9% | 12.6% | 15.8% | 16.6% | 14.2%
C=C1CC[C@H](C(C)C)[C@H]2C=C(C)CC[C@H]12 [gamma-cadinene] |  |  |  |  | 1.8% | 14.5% | 13.2% | 12.3% | 7.3%
C=CC1(C)CCC(=C(C)C)CC1C(=C)C (centres unmarked) [gamma-elemene] | 5.9% | 6.8% | 9.0% | 1.3% | 2.9% | 0% | 5.6% | 5.9% | 4.9%
C=C1CC[C@@H](C(C)C)[C@@H]2C=C(C)CC[C@H]12 [gamma-muurolene] |  |  |  | 0.3% | 3.8% | 15% | 20.2% | 20.0% | 14.8%
CC1=CCC[C@]2(C)CCC(=C(C)C)C[C@@H]12 [selinadiene, eudesma-3,7(11)-diene] |  |  |  |  |  | 15.4% | 7.7% | 7.6% | 7.3%
C=C[C@@]1(C)CCC(C(C)C)=C[C@@H]1C(=C)C [δ-Elemene] | 10.4% | 13.4% | 14.6% | 7% | 15.5% | 0% | 2.7% | 4.0% | 

From US7312323B2, “Enzymes and polynucleotides encoding the same” (The Horticulture and Food Research Institute of New Zealand …, priority 2002, dated 2007)
